Source: article doi:10.1101/2024.10.16.24315096
These are yes or no findings as the source states them, for the method shown. In cells and extracts the contact can be indirect. Some entries that bind do so weakly or less than the wild type. For some assays here: Where a sequence is shown, tags or fusion partners need not be part of it.

How the values were obtained:
[1] = molecular target: T1, FilGAP p.Gln671Ter, HA-tagged (human) (UniProt Q8N264); test: co-IP
T1 sequence: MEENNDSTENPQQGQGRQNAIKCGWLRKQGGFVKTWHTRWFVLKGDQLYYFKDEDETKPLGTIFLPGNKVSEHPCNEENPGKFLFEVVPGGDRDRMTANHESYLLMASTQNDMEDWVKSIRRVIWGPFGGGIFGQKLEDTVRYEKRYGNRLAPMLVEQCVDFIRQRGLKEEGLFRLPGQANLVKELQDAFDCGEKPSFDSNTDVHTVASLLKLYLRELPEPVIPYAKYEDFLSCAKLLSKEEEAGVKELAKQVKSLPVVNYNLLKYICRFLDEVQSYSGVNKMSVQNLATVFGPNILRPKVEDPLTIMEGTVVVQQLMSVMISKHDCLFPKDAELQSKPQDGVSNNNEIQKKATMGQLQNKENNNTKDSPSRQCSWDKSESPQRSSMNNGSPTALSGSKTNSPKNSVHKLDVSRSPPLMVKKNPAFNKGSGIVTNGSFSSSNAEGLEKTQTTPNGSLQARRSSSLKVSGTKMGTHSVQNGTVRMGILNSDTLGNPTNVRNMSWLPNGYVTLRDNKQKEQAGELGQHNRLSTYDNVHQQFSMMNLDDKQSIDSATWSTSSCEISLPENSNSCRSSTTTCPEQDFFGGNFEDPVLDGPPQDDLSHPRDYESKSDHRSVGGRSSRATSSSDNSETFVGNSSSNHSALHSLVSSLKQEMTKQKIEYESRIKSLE

[2] = molecular target: FilGAP wild-type (Filamin A binding RhoGTPase-activating protein, encoded by ARHGAP24) (human) (UniProt Q8N264); test: co-IP

binding [1]: no binding | binding [2]: binds
B1: FilGAP wild-type (Filamin A binding RhoGTPase-activating protein, encoded by ARHGAP24) (protein, UniProt Q8N264-1 1-748)
chain: MEENNDSTENPQQGQGRQNAIKCGWLRKQGGFVKTWHTRWFVLKGDQLYYFKDEDETKPLGTIFLPGNKVSEHPCNEENPGKFLFEVVPGGDRDRMTANHESYLLMASTQNDMEDWVKSIRRVIWGPFGGGIFGQKLEDTVRYEKRYGNRLAPMLVEQCVDFIRQRGLKEEGLFRLPGQANLVKELQDAFDCGEKPSFDSNTDVHTVASLLKLYLRELPEPVIPYAKYEDFLSCAKLLSKEEEAGVKELAKQVKSLPVVNYNLLKYICRFLDEVQSYSGVNKMSVQNLATVFGPNILRPKVEDPLTIMEGTVVVQQLMSVMISKHDCLFPKDAELQSKPQDGVSNNNEIQKKATMGQLQNKENNNTKDSPSRQCSWDKSESPQRSSMNNGSPTALSGSKTNSPKNSVHKLDVSRSPPLMVKKNPAFNKGSGIVTNGSFSSSNAEGLEKTQTTPNGSLQARRSSSLKVSGTKMGTHSVQNGTVRMGILNSDTLGNPTNVRNMSWLPNGYVTLRDNKQKEQAGELGQHNRLSTYDNVHQQFSMMNLDDKQSIDSATWSTSSCEISLPENSNSCRSSTTTCPEQDFFGGNFEDPVLDGPPQDDLSHPRDYESKSDHRSVGGRSSRATSSSDNSETFVGNSSSNHSALHSLVSSLKQEMTKQKIEYESRIKSLEQRNLTLETEMMSLHDELDQERKKFTMIEIKMRNAERAKEDAEKRNDMLQKEMEQFFSTFGELTVEPRRTERGNTIWIQ
